# Experimental data from the supplement of paper PMC12067093, “Discovery and optimisation of a covalent ligand for TRIM25 and its application to targeted protein ubiquitination” (Chemical Science, 2025).
# By UniProt entry, the sequences of proteins in these tests, tags left out. Where a name states a change or a piece, a line headed by the entry shows the natural chain unless it says otherwise.
# UniProt Q8WTW3: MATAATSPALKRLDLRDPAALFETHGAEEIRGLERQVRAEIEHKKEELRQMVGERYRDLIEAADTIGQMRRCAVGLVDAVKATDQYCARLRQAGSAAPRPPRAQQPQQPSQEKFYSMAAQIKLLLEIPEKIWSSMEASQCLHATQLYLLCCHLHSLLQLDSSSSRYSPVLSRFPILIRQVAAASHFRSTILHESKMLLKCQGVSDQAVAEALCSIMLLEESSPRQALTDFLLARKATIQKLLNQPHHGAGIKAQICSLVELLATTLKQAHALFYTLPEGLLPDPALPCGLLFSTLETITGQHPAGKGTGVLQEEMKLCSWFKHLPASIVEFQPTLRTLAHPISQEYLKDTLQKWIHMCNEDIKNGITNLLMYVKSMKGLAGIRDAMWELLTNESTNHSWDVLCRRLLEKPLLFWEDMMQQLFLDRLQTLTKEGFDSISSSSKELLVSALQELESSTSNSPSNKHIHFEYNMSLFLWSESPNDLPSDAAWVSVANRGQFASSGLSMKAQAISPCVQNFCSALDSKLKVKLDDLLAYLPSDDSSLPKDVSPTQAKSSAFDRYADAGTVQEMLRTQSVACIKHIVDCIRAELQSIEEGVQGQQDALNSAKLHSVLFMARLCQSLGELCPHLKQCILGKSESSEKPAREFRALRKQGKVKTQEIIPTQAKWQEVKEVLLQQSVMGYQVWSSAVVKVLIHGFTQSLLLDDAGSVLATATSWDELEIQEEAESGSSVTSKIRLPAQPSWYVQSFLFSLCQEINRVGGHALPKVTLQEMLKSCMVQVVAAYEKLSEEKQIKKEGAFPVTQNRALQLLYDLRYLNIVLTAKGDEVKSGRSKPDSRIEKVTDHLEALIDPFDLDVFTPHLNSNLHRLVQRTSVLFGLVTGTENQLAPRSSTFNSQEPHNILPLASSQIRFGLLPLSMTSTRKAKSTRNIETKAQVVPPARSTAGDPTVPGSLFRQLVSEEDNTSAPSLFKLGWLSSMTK
# UniProt Q9UBF2: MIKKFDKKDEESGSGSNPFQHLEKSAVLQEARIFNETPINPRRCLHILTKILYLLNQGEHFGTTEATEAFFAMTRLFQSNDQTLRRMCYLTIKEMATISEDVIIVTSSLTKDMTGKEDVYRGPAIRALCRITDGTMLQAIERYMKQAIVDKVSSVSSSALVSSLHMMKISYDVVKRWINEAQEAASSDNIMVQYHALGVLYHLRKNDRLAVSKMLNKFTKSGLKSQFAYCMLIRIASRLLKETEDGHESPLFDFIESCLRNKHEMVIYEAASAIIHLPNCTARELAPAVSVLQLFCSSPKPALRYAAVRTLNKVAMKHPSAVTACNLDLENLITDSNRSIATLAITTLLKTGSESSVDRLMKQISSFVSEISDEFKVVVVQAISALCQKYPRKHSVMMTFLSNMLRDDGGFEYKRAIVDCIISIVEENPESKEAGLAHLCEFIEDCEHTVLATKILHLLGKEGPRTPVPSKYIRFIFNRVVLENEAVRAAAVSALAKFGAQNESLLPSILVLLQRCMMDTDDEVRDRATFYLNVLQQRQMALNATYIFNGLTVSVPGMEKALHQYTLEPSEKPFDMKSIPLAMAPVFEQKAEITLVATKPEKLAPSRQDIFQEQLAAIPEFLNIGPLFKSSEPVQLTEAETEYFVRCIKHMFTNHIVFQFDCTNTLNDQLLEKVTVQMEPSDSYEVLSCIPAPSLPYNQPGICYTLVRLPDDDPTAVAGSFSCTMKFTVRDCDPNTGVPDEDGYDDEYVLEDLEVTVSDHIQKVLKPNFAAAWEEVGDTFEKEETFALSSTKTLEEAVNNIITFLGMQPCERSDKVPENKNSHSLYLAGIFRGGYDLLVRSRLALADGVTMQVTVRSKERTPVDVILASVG
# Some of the results follow.
# Legend:
# COG1_Q8WTW3_584_HIVDCIR = COG1_Q8WTW3_584_HIVDCIR (UniProt Q8WTW3); assay: probe-labelled cysteine peptide fold change vs DMSO (competition) (log2 fold change); higher = less target engagement (more negative = stronger competition); conditions: THP-1, incubation time: 4 h
# [1] = target: COPG2_Q9UBF2_662_HMFTNHIVFQFDCTNTLNDQLLEK (UniProt Q9UBF2); assay: as above; conditions: THP-1, incubation time: 4 h
# 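Note: competitive profiling in live THP-1 cells: cysteine peptides tagged with an iodoacetamide desthiobiotin (IA-DTB) probe, intensity after compound treatment relative to DMSO-treated cells.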
structure (smiles),measurement,setting,value
Cc1cc(C(=O)N2CCCN(C(=O)CCl)CC2)ccc1-c1ccccc1 [compound 10],probe-labelled cysteine peptide fold change,COG1_Q8WTW3_584_HIVDCIR; 10 µM,0.137
same,probe-labelled cysteine peptide fold change,COG1_Q8WTW3_584_HIVDCIR; 50 µM,0.244
same,probe-labelled cysteine peptide fold change,[1]; 10 µM,-0.262
same,probe-labelled cysteine peptide fold change,[1]; 50 µM,-0.255
